According to US6635437B2, “Compounds, compositions and methods for generating chemiluminescence with phosphatase enzymes” (Lumigen, Inc., priority 1996, dated 2003):

System: alkaline phosphatase (AP)
Test: Chemiluminescent detection of alkaline phosphatase with acridan phosphate and cationic aromatic compound (CAC)
Format: biochemical
Conditions: Na2SO3 in Reagent A; 4×10^−16 mol AP

O=S([O-])[O-].[Na+].[Na+] [Na2SO3, sodium sulfite]
concentration giving the maximum S/B: 1.0 mg/mL | concentration giving the maximum signal: 1.0 µg/mL
